Test results published in the supplement of paper PMC12819154, “High-throughput peptide-centric local stability assay extends protein–ligand identification to membrane proteins, tissues and bacteria” (Nature Structural & Molecular Biology, 2025).
The list shows a part of the results. Most values lie at the level of the controls, where differences are scatter.

Protein sequences, listed by entry. Tags and fused reporters are not part of them. Lines headed by an entry give the natural chain unless they say otherwise; changes in a name come on top.
UniProt Q99PG0: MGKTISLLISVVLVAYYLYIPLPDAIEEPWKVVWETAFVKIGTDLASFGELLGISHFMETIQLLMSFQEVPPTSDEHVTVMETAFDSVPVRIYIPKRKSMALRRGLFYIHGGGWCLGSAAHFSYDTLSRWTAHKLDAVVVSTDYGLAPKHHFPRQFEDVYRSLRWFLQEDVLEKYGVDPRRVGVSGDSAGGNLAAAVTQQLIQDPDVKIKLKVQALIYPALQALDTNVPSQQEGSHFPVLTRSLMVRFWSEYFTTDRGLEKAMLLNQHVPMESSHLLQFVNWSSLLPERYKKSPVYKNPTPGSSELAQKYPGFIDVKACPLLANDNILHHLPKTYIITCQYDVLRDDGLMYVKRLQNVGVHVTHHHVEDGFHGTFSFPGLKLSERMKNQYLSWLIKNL
UniProt Q9CQJ6: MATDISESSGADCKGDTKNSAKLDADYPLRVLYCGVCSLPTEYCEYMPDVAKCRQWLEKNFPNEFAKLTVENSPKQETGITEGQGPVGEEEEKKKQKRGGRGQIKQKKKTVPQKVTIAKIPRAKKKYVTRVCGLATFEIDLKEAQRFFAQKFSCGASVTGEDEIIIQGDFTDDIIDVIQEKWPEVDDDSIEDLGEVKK
UniProt Q9CQJ4: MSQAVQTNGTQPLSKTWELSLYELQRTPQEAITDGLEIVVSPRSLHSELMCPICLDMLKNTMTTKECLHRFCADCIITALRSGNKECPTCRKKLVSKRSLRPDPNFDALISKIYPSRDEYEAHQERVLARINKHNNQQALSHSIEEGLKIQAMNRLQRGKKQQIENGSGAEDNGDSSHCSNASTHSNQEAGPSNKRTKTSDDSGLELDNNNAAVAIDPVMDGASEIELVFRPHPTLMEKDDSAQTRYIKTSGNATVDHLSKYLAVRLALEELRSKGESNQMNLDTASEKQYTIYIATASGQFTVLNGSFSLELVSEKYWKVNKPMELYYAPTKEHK
UniProt Q99PU7: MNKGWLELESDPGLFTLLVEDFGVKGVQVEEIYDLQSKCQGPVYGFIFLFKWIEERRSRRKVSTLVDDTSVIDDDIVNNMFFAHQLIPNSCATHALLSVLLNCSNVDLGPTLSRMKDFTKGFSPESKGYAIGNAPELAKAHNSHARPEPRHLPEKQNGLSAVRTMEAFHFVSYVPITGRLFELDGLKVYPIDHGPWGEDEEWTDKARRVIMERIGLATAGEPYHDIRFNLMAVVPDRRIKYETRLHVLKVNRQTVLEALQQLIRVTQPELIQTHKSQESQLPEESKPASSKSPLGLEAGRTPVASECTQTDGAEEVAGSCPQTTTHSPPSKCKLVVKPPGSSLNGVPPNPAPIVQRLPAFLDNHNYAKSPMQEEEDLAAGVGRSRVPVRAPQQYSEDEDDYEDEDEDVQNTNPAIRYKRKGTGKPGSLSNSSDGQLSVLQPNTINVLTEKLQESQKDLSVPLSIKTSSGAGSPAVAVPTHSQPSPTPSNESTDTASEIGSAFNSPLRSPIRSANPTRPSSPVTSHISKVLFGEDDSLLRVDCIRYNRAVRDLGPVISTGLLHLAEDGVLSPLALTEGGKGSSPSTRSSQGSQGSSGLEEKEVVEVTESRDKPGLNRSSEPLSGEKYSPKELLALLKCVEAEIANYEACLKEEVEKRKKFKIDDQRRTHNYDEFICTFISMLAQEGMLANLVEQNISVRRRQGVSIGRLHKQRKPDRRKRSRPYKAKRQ
UniProt Q9CQV7: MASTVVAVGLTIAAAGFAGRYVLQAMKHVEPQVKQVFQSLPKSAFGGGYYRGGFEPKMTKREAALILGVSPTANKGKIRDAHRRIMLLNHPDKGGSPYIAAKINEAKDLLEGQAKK
UniProt Q9CQS4: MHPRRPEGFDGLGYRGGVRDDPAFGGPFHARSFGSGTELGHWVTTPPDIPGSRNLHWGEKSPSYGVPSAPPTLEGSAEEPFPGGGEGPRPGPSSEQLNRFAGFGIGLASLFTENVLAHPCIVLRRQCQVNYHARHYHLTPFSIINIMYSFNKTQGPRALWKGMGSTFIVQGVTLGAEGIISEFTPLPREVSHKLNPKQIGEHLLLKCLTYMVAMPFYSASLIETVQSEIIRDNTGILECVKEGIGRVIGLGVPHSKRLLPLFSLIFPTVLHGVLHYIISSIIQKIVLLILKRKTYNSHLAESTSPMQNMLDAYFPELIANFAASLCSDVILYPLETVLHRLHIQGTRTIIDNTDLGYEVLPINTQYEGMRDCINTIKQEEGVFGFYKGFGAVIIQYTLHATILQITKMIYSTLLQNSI
UniProt Q9CR50: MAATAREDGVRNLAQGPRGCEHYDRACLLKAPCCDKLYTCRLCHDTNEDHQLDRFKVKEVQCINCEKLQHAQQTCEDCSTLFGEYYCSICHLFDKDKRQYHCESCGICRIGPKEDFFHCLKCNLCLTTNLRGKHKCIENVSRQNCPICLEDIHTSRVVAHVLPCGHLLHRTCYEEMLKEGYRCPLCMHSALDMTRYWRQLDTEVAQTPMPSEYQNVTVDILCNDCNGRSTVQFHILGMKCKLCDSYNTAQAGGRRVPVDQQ
UniProt Q99PM9: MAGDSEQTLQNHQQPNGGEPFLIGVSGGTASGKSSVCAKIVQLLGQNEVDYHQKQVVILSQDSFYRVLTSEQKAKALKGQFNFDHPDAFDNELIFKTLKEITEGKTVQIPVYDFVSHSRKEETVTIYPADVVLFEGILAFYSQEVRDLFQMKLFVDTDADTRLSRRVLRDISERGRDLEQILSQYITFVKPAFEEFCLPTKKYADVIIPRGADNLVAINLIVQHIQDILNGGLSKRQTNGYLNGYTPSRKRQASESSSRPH
UniProt Q99MN1, whole entry: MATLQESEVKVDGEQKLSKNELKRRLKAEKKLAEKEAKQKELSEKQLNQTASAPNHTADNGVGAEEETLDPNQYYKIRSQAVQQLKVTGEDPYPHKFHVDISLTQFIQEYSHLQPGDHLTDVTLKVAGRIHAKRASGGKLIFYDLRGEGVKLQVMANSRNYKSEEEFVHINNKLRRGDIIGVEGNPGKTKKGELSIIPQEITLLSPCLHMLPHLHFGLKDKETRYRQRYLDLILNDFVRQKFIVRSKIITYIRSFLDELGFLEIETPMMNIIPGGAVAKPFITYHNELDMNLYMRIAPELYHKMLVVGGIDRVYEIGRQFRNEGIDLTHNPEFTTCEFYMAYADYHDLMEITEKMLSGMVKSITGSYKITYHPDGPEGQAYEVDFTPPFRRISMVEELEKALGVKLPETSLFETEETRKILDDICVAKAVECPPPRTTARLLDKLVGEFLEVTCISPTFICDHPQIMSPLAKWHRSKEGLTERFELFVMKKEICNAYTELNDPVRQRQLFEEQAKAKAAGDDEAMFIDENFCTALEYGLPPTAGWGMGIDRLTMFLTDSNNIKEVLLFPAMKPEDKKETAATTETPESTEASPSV
UniProt Q9CR08: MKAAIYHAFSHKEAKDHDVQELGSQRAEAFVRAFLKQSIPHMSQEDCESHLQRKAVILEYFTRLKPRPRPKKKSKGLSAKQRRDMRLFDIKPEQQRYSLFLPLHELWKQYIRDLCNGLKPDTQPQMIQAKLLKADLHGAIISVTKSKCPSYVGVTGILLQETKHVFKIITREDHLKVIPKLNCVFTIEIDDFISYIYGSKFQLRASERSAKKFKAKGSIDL
UniProt Q99PS0: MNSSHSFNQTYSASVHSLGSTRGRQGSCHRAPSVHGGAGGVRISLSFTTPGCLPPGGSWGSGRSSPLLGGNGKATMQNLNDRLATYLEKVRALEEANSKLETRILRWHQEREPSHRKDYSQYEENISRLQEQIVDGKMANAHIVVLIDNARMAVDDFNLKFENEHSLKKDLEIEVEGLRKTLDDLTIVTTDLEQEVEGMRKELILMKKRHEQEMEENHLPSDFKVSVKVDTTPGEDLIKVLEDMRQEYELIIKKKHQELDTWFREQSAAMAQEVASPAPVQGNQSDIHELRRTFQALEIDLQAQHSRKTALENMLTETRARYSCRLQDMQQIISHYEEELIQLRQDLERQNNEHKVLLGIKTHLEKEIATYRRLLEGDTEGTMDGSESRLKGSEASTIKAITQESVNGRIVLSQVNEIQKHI
UniProt Q99N42: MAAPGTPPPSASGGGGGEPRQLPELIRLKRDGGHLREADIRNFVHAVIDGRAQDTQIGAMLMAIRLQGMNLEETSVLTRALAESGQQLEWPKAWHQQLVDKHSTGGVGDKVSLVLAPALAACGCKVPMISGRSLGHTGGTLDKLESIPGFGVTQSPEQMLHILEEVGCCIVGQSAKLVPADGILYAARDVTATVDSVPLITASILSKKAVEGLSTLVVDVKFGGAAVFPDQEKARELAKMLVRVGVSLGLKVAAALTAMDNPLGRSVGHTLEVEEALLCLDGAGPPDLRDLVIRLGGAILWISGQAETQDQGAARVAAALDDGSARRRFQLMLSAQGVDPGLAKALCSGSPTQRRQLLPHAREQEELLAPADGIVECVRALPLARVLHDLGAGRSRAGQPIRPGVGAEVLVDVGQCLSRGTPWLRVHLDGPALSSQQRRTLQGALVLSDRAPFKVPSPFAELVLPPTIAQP
UniProt Q99PU8: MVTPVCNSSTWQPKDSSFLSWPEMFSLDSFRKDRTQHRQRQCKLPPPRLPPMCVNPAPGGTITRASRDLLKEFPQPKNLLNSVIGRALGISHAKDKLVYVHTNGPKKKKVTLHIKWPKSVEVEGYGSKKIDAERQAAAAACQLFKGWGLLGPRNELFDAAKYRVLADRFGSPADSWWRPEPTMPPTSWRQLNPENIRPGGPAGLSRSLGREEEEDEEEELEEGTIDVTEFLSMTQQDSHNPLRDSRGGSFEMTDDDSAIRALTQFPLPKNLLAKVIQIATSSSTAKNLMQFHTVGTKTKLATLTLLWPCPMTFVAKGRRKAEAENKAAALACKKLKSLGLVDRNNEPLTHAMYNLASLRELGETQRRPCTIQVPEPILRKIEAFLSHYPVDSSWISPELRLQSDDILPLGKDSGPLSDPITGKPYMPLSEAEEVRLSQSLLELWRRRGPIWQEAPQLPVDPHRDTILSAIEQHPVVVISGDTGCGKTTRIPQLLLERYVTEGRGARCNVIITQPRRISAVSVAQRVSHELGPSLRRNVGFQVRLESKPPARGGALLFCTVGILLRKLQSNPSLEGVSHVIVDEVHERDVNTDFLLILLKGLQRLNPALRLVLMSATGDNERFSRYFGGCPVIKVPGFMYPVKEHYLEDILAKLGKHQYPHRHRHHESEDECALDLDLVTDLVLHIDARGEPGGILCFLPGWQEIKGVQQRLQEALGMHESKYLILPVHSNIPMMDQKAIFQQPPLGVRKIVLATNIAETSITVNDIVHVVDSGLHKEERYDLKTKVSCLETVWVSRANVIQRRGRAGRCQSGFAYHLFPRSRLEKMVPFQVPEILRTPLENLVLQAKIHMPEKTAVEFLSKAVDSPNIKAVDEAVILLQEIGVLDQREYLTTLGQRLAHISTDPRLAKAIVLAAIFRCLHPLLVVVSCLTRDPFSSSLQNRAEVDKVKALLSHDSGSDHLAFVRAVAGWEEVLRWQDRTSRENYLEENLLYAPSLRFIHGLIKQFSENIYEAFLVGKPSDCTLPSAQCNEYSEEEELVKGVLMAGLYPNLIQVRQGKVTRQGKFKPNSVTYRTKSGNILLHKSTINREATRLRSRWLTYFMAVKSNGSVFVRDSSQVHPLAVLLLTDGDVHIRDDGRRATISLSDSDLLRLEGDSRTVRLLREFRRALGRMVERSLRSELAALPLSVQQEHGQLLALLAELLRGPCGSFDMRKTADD
UniProt Q99M15: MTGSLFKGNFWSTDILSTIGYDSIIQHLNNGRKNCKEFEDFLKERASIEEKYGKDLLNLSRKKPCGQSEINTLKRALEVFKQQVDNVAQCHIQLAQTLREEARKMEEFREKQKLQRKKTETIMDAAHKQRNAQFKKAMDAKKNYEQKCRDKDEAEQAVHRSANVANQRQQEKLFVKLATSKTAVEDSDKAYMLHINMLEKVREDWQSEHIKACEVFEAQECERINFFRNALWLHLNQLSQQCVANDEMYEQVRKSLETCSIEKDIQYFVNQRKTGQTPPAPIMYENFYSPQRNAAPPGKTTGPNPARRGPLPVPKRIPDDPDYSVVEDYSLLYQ
UniProt Q9CQE0: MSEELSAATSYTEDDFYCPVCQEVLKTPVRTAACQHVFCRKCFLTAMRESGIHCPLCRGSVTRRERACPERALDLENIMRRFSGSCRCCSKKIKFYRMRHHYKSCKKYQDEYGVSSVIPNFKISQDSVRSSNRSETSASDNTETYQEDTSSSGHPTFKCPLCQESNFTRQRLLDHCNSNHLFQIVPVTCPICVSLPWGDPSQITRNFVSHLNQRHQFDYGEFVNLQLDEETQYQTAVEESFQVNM
UniProt Q9CQT5: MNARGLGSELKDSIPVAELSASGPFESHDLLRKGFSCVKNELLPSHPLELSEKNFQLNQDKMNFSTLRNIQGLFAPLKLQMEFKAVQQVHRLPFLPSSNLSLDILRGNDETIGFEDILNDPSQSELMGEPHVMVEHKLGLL
UniProt Q9CQ13: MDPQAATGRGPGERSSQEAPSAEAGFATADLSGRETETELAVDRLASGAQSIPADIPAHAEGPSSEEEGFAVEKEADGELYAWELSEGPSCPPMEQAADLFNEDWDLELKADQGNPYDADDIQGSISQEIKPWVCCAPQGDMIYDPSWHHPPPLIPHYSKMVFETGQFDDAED

Compound: CN[C@@H]1C[C@H]2O[C@@](C)([C@@H]1OC)n1c3ccccc3c3c4c(c5c6ccccc6n2c5c31)C(=O)NC4 [staurosporine]
Assay: log2 fold change of tryptic peptide abundance, ligand vs vehicle (limited proteolysis) (log2 ratio); higher = more trypsin-susceptible (destabilized)
Details: ligand concentration: 20 uM; sample: mouse liver crude lysate; replicate design: treated separately

UniProt Q9CQ40 (peptide sequence: IKGYFDEQLK, peptide start residue: 149)
log2 fold change: 0.367

UniProt Q9CQB5 (peptide sequence: VQLPAYLK, peptide start residue: 12)
log2 fold change: 0.226

UniProt Q99PG0 (peptide sequence: ACPLLANDNILHHLPK, peptide start residue: 318)
log2 fold change: -0.494

UniProt Q99LJ2 (peptide sequence: YLLANGAR, peptide start residue: 54)
log2 fold change: -0.185

UniProt Q9CQJ6 (peptide sequence: WPEVDDDSIEDLGEVKK, peptide start residue: 182)
log2 fold change: 0.544

UniProt Q9CQJ4 (peptide sequence: VNKPMELYYAPTK, peptide start residue: 321)
log2 fold change: 0.587

UniProt Q99PU7 (peptide sequence: GYAIGNAPELAK, peptide start residue: 128)
log2 fold change: 0.232

UniProt Q99N96 (peptide sequence: EKTSDEKPVDDIEK, peptide start residue: 63)
log2 fold change: 0.144

UniProt Q9CQ28 (peptide sequence: VAALGLDPDKHLGK, peptide start residue: 165)
log2 fold change: -0.186

UniProt Q9CQV7 (peptide sequence: QVFQSLPK, peptide start residue: 35)
log2 fold change: 0.0759

UniProt Q9CQS4 (peptide sequence: VIGLGVPHSK, peptide start residue: 247)
log2 fold change: 0.214

UniProt Q9CR50 (peptide sequence: TCYEEMLK, peptide start residue: 171)
log2 fold change: 0.334

UniProt Q99PM9 (peptide sequence: QASESSSRPH, peptide start residue: 252)
log2 fold change: -0.483

UniProt Q9CQA1 (peptide sequence: VFSVAELQAR, peptide start residue: 44)
log2 fold change: 0.257

UniProt Q99MN1 (peptide sequence: SKIITYIR, peptide start residue: 246)
log2 fold change: 0.521

UniProt Q99MR6 (peptide sequence: MLDAAVIK, peptide start residue: 249)
log2 fold change: -0.52

UniProt Q9CR26 (peptide sequence: MFLYADNEDR, peptide start residue: 97)
log2 fold change: -0.259

UniProt Q9CPR5 (peptide sequence: GCGTSLDLLR, peptide start residue: 7)
log2 fold change: -0.144

UniProt Q9CR08 (peptide sequence: DHDVQELGSQR, peptide start residue: 16)
log2 fold change: 0.296

UniProt Q99PS0 (peptide sequence: IVLSQVNEIQK, peptide start residue: 410)
log2 fold change: -0.12

UniProt Q99N95 (peptide sequence: GQPASHGQTK, peptide start residue: 226)
log2 fold change: -0.152

UniProt Q99N42 (peptide sequence: TLQGALVLSDR, peptide start residue: 440)
log2 fold change: -0.373

UniProt Q9CQ79 (peptide sequence: VVCHFYR, peptide start residue: 92)
log2 fold change: -0.521

UniProt Q99PU8 (peptide sequence: VSHELGPSLR, peptide start residue: 526)
log2 fold change: 0.343

UniProt Q99M15 (peptide sequence: DIQYFVNQR, peptide start residue: 264)
log2 fold change: 0.315

UniProt Q9CQE0 (peptide sequence: ALDLENIMR, peptide start residue: 72)
log2 fold change: -0.128

UniProt Q9CR00 (peptide sequence: RKEEIEAEIK, peptide start residue: 29)
log2 fold change: 0.131

UniProt Q9CPR7 (peptide sequence: LREHDAAAESLVDQSAALHR, peptide start residue: 19)
log2 fold change: -0.254

UniProt Q9CQC7 (peptide sequence: SANIYPNFRPTPK, peptide start residue: 73)
log2 fold change: -0.311

UniProt Q9CQT5 (peptide sequence: MNFSTLR, peptide start residue: 62)
log2 fold change: 0.0747

UniProt Q9CQ13 (peptide sequence: ETETELAVDR, peptide start residue: 35)
log2 fold change: 0.195
